Experimental data: PubChem BioAssay AID1259254 (NCATS, 2017)
Here is an unselected part of about 59,000 reagents tested. Of all reagents, about 1,550 (2.6%) were called active. 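G2 share is only a proxy for re-replication; each gene was hit by three separate siRNAs, and active genes were retested.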 Entries without a mark were called inactive. Reagents against one gene are numbered here. Further read-outs or replicates are left out here. The record does not give: the amount of reagent.

- Test: 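Genome-wide screen for genes that prevent DNA re-replication in cancer cells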 (primary screen)
- Cell system: human HCT116 colorectal cancer cells
- Knock-down reagent: single siRNA against human genes
- Time to read-out: 3 days
- Read-out: 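Imaged Hoechst DNA stain sorts each cell into a cycle phase by DNA amount; per plate, G2 fraction set to 0% for non-targeting and 100% for GMNN siRNA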
- Reading the numbers: G2 robust z-score: higher = more G2 cells, more excess DNA replication
- Active means: 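An siRNA counts as active if its G2 robust z-score lies at least 5 MADs above the screen median; here such calls match roughly 38% of GMNN control or more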

PTBP3 (GeneID 9991) #1 — G2 robust z-score: 0.433
PTBP3 (GeneID 9991) #2 — G2 robust z-score: -0.592
PTBP3 (GeneID 9991) #3 — G2 robust z-score: 1.89
NSD3 (GeneID 54904) #1 — G2 robust z-score: 5.38 (active)
NSD3 (GeneID 54904) #2 — G2 robust z-score: -0.0306
NSD3 (GeneID 54904) #3 — G2 robust z-score: 0.674
KPTN (GeneID 11133) #1 — G2 robust z-score: 5.19 (active)
KPTN (GeneID 11133) #2 — G2 robust z-score: 2.07
KPTN (GeneID 11133) #3 — G2 robust z-score: -0.423
SMPDL3A (GeneID 10924) #1 — G2 robust z-score: 2.19
SMPDL3A (GeneID 10924) #2 — G2 robust z-score: -0.244
SMPDL3A (GeneID 10924) #3 — G2 robust z-score: 1.93
EVI5L (GeneID 115704) #1 — G2 robust z-score: -0.101
EVI5L (GeneID 115704) #2 — G2 robust z-score: 0.147
EVI5L (GeneID 115704) #3 — G2 robust z-score: -0.711
ENAH (GeneID 55740) #1 — G2 robust z-score: 0.695
ENAH (GeneID 55740) #2 — G2 robust z-score: 1.56
ENAH (GeneID 55740) #3 — G2 robust z-score: 4.05
CAD (GeneID 790) #1 — G2 robust z-score: -0.333
CAD (GeneID 790) #2 — G2 robust z-score: -1.32
CAD (GeneID 790) #3 — G2 robust z-score: 3.34
INSYN1 (GeneID 388135) #1 — G2 robust z-score: 0.0993
INSYN1 (GeneID 388135) #2 — G2 robust z-score: -0.528
INSYN1 (GeneID 388135) #3 — G2 robust z-score: 0.344

Laid out differently: entries from further up.
gene | reagent no. | G2 robust z-score
PTBP3 (GeneID 9991) | 3 | 1.89
NSD3 (GeneID 54904) | 1 | 5.38 (active)
